Reference: PubChem BioAssay AID1259308 (NCATS, 2017)
Shown is one part, drawn at random, of about 59,000 deposited reagents. Of all reagents, about 1,510 (2.6%) were called active. 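Calls use total luciferase alone and ignore viability, so some active siRNAs may act by altering cell number.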 Unmarked entries are inactive. Reagents against one gene are numbered here.

- Test: 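Candidate targets for better recombinant protein yield in mammalian cells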 (primary screen)
- Cells: human HEK293 embryonic kidney cells stably expressing firefly luciferase (HEK-CMV-Luc2-Hygro)
- Reagents: single siRNA against human genes, 0.8 pmol siRNA per well
- Time to read-out: 72 h
- Read-out: 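Reporter luminescence and viable-cell signal on separate replicate plates, given as percent of non-targeting control and median/MAD z-scores, plus per-cell luciferase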
- Scale: total luciferase, z-score and total luciferase, % of control: higher = more reporter protein produced; luciferase per cell, z-score: higher = more reporter output per viable cell; viable cells, % of control: higher = more viable cells
- Rule for the call: 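Active when the median/MAD z-score for overall luciferase is greater than 3; a gene was taken forward for validation with new siRNAs if at least two of its three siRNAs passed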
- Calls: active = raised luciferase; inactive = no rise

| Gene | reagent no. | total luciferase, z-score | total luciferase, % of control | luciferase per cell, z-score | viable cells, % of control |
| --- | --- | --- | --- | --- | --- |
| UBLCP1 (ubiquitin like domain containing CTD phosphatase 1) | 1 | 0.112 | 84.1 | 0.33 | 86.2 |
| UBLCP1 (ubiquitin like domain containing CTD phosphatase 1) | 2 | 0.18 | 85.5 | -0.0587 | 97 |
| UBLCP1 (ubiquitin like domain containing CTD phosphatase 1) | 3 | -1.68 | 48.4 | -1.56 | 81.6 |
| DOLK (dolichol kinase) | 1 | -0.342 | 75.1 | -0.232 | 89.2 |
| DOLK (dolichol kinase) | 2 | -0.941 | 63.2 | -0.907 | 89.6 |
| DOLK (dolichol kinase) | 3 | 0.0805 | 83.5 | 0.121 | 90.4 |
| TMEM9 (transmembrane protein 9) | 1 | -1.55 | 51 | 0.311 | 52.6 |
| TMEM9 (transmembrane protein 9) | 2 | -0.532 | 71.3 | 1.06 | 60.3 |
| TMEM9 (transmembrane protein 9) | 3 | -0.883 | 64.3 | -1.17 | 97.7 |
| LOC644554 | 1 | 0.306 | 88 | 0.682 | 82.1 |
| LOC644554 | 2 | 0.488 | 91.6 | 0.283 | 95 |
| LOC644554 | 3 | -0.0153 | 81.6 | 0.263 | 85.1 |
| TCF15 (transcription factor 15) | 1 | -0.192 | 78.1 | -0.5 | 99.5 |
| TCF15 (transcription factor 15) | 2 | -0.509 | 71.8 | -0.537 | 92.4 |
| TCF15 (transcription factor 15) | 3 | 0.277 | 87.4 | 0.149 | 93.9 |
| CDK2AP2 (cyclin dependent kinase 2 associated protein 2) | 1 | 0.152 | 84.9 | -0.558 | 110 |
| CDK2AP2 (cyclin dependent kinase 2 associated protein 2) | 2 | 1.08 | 103 | 0.827 | 92.9 |
| CDK2AP2 (cyclin dependent kinase 2 associated protein 2) | 3 | -0.111 | 79.7 | -0.481 | 101 |
| NSMCE4A (NSE4A component of SMC5/6 complex) | 1 | 0.0199 | 82.3 | 0.649 | 77.5 |
| NSMCE4A (NSE4A component of SMC5/6 complex) | 2 | 0.863 | 99.1 | 1.07 | 83.5 |
| NSMCE4A (NSE4A component of SMC5/6 complex) | 3 | -0.344 | 75.1 | 0.623 | 71.2 |
| MORF4 (mortality factor 4 (pseudogene)) | 1 | -0.216 | 77.6 | -0.308 | 94 |
| MORF4 (mortality factor 4 (pseudogene)) | 2 | -1.08 | 60.5 | -1.84 | 110 |
| MORF4 (mortality factor 4 (pseudogene)) | 3 | 0.461 | 91.1 | 0.00442 | 102 |
| MDM4 (MDM4 regulator of p53) | 1 | 0.952 | 101 | 0.617 | 95.8 |
| MDM4 (MDM4 regulator of p53) | 2 | -2.12 | 39.8 | -0.941 | 56.9 |
| MDM4 (MDM4 regulator of p53) | 3 | -1.13 | 59.5 | -0.505 | 75.9 |
| DYRK3 (dual specificity tyrosine phosphorylation regulated kinase 3) | 1 | -1.13 | 59.5 | 0.0534 | 65.5 |
| DYRK3 (dual specificity tyrosine phosphorylation regulated kinase 3) | 2 | -0.0271 | 81.3 | 0.00571 | 90.8 |
| DYRK3 (dual specificity tyrosine phosphorylation regulated kinase 3) | 3 | -0.536 | 71.2 | -1.12 | 107 |

The list goes on (8 carried over from the part before).
| Gene | reagent no. | total luciferase, z-score | total luciferase, % of control | luciferase per cell, z-score | viable cells, % of control |
| --- | --- | --- | --- | --- | --- |
| MORF4 (mortality factor 4 (pseudogene)) | 2 | -1.08 | 60.5 | -1.84 | 110 |
| MORF4 (mortality factor 4 (pseudogene)) | 3 | 0.461 | 91.1 | 0.00442 | 102 |
| MDM4 (MDM4 regulator of p53) | 1 | 0.952 | 101 | 0.617 | 95.8 |
| MDM4 (MDM4 regulator of p53) | 2 | -2.12 | 39.8 | -0.941 | 56.9 |
| MDM4 (MDM4 regulator of p53) | 3 | -1.13 | 59.5 | -0.505 | 75.9 |
| DYRK3 (dual specificity tyrosine phosphorylation regulated kinase 3) | 1 | -1.13 | 59.5 | 0.0534 | 65.5 |
| DYRK3 (dual specificity tyrosine phosphorylation regulated kinase 3) | 2 | -0.0271 | 81.3 | 0.00571 | 90.8 |
| DYRK3 (dual specificity tyrosine phosphorylation regulated kinase 3) | 3 | -0.536 | 71.2 | -1.12 | 107 |
| OSBPL9 (oxysterol binding protein like 9) | 1 | 0.51 | 92 | 0.0853 | 101 |
| OSBPL9 (oxysterol binding protein like 9) | 2 | 1.07 | 103 | 0.639 | 97.4 |
| OSBPL9 (oxysterol binding protein like 9) | 3 | -0.858 | 64.8 | -0.503 | 82.7 |
| SPTBN2 (spectrin beta, non-erythrocytic 2) | 1 | -1.38 | 54.3 | -1.53 | 91 |
| SPTBN2 (spectrin beta, non-erythrocytic 2) | 2 | 0.466 | 91.2 | 0.272 | 94.8 |
| SPTBN2 (spectrin beta, non-erythrocytic 2) | 3 | 0.566 | 93.1 | 0.742 | 85.6 |
| KIT (KIT proto-oncogene, receptor tyrosine kinase) | 1 | 0.294 | 87.7 | 1.46 | 66.7 |
| KIT (KIT proto-oncogene, receptor tyrosine kinase) | 2 | -1.32 | 55.7 | -1.47 | 91.8 |
| KIT (KIT proto-oncogene, receptor tyrosine kinase) | 3 | -1.08 | 60.4 | -0.287 | 72.8 |
| GINS1 (GINS complex subunit 1) | 1 | -1.61 | 49.8 | -0.701 | 66.9 |
| GINS1 (GINS complex subunit 1) | 2 | 0.971 | 101 | 1.16 | 83.4 |
| GINS1 (GINS complex subunit 1) | 3 | -0.468 | 72.6 | 0.0163 | 80.8 |
| BCKDK (branched chain keto acid dehydrogenase kinase) | 1 | 1.12 | 104 | 3.42 | 47.3 |
| BCKDK (branched chain keto acid dehydrogenase kinase) | 2 | -0.293 | 76.1 | -0.444 | 95.5 |
| BCKDK (branched chain keto acid dehydrogenase kinase) | 3 | -1.35 | 55.1 | -0.00903 | 61.7 |
| DET1 (DET1 partner of COP1 E3 ubiquitin ligase) | 1 | -0.225 | 77.4 | -0.0953 | 88.7 |
| DET1 (DET1 partner of COP1 E3 ubiquitin ligase) | 2 | 0.48 | 91.4 | 0.0749 | 100 |
| DET1 (DET1 partner of COP1 E3 ubiquitin ligase) | 3 | -1.61 | 49.9 | -1.25 | 77.5 |
| APC (APC regulator of Wnt signaling pathway) | 1 | 1.95 | 121 | 1.94 | 80.9 |
| APC (APC regulator of Wnt signaling pathway) | 2 | -0.107 | 79.8 | 0.238 | 83.7 |
| APC (APC regulator of Wnt signaling pathway) | 3 | -0.341 | 75.1 | -0.674 | 100 |
| RSPRY1 (ring finger and SPRY domain containing 1) | 1 | -0.411 | 73.7 | 0.356 | 75 |
| RSPRY1 (ring finger and SPRY domain containing 1) | 2 | 0.0271 | 82.4 | 0.414 | 82.6 |
| RSPRY1 (ring finger and SPRY domain containing 1) | 3 | -0.738 | 67.2 | -0.641 | 88.9 |
| ANKRD17 (ankyrin repeat domain 17) | 1 | -0.593 | 70.1 | -0.909 | 99.5 |
| ANKRD17 (ankyrin repeat domain 17) | 2 | 1.89 | 120 | 1.82 | 82.8 |
| ANKRD17 (ankyrin repeat domain 17) | 3 | -0.689 | 68.2 | -0.0748 | 77.7 |
